Entries after “also recorded” stand apart in the source; their conditions may differ. The source holds more than one record for some entries. Only these are listed. There may be further records. The records of an entry do not match, cause unknown; they may come from other doses, times, organisms or constructs than stated.
Biological target: parathyroid cell Ca^2+ receptor (Bos taurus, UniProt P35384)
Experiment: Mobilization of intracellular Ca2+ ([Ca2+]i, fura-2) in bovine parathyroid cells
Format: cell-based
Details: low [Ca2+] 0.5 mM; 200 µM in Fig. 37

The chains behind the UniProt entries cited, without tags or fusion partners. Residues count along the entry.
UniProt P35384, 20-1085 limits assumed: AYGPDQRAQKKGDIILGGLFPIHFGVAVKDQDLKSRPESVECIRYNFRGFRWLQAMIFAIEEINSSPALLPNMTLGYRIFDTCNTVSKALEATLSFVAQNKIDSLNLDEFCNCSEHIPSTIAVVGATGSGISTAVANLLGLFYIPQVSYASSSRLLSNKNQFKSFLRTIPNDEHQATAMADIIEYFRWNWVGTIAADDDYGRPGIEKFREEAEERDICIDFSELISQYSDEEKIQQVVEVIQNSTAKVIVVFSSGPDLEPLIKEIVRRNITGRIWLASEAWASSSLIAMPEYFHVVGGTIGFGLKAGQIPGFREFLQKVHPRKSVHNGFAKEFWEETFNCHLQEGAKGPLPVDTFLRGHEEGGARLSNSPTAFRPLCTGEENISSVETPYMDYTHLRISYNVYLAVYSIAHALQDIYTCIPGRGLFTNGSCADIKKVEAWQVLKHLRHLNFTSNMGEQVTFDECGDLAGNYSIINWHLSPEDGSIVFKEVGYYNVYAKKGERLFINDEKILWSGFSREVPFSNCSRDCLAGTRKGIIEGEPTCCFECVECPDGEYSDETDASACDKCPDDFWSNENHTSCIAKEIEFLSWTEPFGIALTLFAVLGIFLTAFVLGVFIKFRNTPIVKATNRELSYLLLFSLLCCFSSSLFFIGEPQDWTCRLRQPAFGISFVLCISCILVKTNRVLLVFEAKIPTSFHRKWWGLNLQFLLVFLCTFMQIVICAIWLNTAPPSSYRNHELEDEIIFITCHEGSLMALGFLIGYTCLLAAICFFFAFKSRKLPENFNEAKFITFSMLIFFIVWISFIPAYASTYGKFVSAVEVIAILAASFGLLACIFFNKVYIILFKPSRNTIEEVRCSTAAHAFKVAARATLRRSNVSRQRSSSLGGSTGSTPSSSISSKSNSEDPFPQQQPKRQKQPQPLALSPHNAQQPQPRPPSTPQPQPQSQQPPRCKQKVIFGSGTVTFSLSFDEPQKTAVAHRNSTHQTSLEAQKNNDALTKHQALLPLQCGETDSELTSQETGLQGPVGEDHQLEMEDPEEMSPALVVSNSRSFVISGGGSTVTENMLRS

NCCCCCCCCCCCCNC(=O)Cc1ccc(O)cc1O
effect by itself on [Ca2+]i: does not by itself cause any change in [Ca^2+]i; also recorded: caused no change in [Ca^2+]i

— EP0637237B1, “CALCIUM RECEPTOR-ACTIVE MOLECULES” (BRIGHAM AND WOMEN'S HOSPITAL, INC., priority 1993, dated 1994)
